Data published in paper PMC9166791.

By UniProt entry, the sequences of proteins in these tests, tags left out. Where a name states a change or a piece, a line headed by the entry shows the natural chain unless it says otherwise.
UniProt Q9ES97: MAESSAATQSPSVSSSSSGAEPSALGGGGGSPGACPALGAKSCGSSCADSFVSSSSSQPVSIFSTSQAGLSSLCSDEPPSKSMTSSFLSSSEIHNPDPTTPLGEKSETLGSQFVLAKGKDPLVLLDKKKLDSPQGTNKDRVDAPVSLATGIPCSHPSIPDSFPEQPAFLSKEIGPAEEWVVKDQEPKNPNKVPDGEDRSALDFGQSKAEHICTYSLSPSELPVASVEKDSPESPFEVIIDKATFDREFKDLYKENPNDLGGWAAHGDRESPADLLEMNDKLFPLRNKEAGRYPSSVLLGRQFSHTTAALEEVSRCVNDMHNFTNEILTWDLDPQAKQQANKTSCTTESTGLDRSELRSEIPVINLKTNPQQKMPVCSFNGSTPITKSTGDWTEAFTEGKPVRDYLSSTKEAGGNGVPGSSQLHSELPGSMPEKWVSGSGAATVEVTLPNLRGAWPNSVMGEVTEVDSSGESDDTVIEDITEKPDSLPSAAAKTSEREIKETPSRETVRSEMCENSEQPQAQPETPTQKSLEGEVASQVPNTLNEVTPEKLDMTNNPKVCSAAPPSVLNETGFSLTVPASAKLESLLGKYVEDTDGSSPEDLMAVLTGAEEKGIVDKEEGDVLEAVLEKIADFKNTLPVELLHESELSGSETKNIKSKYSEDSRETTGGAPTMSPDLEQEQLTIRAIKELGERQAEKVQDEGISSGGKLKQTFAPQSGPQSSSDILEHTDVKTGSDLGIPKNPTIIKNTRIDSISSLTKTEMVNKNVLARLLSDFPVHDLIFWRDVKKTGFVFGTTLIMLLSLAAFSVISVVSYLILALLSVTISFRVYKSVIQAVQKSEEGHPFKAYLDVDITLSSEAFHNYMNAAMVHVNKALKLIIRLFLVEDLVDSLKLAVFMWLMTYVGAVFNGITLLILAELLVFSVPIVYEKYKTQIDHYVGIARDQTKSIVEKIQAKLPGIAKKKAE

Molecular target: Reticulon 3 (RTN3) (mouse (endogenous in renal tubular epithelial cells of WT mice)) (UniProt Q9ES97)
Assay: affinity purification with mass spectrometry; co-IP from total proteins of renal tubular epithelial cells of WT mice, followed by mass spectrometric analysis

binding: binds
B1: GC-Rich Promoter Binding Protein 1 (GPBP1) (protein, UniProt Q6NXH3 1-473)
chain: MAQHDFAPAWLNFPTPPSSTKSSLNFEKHSENFSWTENRYDVSRRRHNSSDGFDSGIGRPNGGNFGRKEKNGWRTHGRNGTENINHRGGYHGGNSRSRSSIFHSGKSQGLHENSIPDNETGRKEDKRERRQFEAEDFPSLNPEYEREPNQNKSLAAGVWDYPPNPKSRTPRMLVIKKGNTKDLQLSGFPVAGNLQSQPVKNGTGPSVYKGLVPKPAVPPTKPTQWKSQTKENKVGTSFSHESTYGVGNFNTFKSTAKNISPSTNSVKECNRSNSSSPVDKLNQQPRLTKLTRMRSDKKSEFLKALKRDRVEEEHEDESHAGSEKDDDSFNLHNSNTTHQERDINRNFDENEIPQENGNASMISQQIIRSSTFPQTDVLSSSLEAEHRLLKEMGWQEDSENDETCAPLTEDEMREFQVISEQLQKNGLRKNGILKNGLICDFKFGPWKNSTFKPTIENDDTETSSSDTSDDDDV

No constants are given. Whether binding was seen depends on the method and setting. In cells and extracts the contact can be indirect. These calls come from enrichment with a bait or labelling near it, and not all partners need be listed.
